Binding data for one substance are collected here from paper PMC9336500.

By UniProt entry, the sequences of proteins in these tests, tags left out. Residues count along the entry.
UniProt P35869, residues 11-848: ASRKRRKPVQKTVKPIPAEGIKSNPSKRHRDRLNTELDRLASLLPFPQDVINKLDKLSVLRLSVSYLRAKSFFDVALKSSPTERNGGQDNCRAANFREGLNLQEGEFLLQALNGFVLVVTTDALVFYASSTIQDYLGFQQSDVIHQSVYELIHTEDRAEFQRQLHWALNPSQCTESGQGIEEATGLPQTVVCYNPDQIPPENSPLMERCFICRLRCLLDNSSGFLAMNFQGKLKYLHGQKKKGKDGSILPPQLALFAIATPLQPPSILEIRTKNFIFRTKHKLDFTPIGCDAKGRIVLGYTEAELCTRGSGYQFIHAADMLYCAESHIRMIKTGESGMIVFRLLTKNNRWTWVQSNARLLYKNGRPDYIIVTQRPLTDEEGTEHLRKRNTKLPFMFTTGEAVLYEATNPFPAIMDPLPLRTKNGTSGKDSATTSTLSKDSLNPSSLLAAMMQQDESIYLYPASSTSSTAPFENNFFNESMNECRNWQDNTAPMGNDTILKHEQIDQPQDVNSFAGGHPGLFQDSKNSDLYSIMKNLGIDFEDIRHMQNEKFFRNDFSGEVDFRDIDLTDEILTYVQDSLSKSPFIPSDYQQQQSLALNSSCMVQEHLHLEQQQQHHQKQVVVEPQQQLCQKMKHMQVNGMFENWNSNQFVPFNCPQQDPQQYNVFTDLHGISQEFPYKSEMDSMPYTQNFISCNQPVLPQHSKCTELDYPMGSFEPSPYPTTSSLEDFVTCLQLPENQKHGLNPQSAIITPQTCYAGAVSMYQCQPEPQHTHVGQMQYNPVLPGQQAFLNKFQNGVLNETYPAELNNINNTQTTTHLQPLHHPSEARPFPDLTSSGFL
UniProt P27540: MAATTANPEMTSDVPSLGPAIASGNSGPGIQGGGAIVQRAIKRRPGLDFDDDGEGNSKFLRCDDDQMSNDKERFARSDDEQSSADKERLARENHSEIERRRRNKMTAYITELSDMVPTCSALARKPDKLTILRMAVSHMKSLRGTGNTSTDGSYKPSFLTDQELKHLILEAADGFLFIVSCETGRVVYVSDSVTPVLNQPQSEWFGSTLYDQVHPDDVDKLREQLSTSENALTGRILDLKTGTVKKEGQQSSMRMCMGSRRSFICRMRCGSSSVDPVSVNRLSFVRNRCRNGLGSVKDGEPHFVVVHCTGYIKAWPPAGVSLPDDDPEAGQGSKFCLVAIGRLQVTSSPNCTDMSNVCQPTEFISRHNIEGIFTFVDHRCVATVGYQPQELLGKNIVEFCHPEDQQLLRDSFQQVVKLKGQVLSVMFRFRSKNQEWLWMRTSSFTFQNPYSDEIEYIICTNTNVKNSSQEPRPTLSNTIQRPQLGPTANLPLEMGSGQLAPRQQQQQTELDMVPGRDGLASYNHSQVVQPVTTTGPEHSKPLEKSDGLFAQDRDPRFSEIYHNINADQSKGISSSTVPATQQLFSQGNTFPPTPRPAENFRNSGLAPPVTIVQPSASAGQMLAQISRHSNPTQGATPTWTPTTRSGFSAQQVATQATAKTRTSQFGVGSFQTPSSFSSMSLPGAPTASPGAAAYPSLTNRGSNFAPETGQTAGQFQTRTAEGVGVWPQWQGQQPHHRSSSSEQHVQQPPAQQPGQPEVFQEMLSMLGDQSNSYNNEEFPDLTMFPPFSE

For assay [1], the target named is Aryl hydrocarbon receptor (human (endogenous in LS180)) (UniProt P35869). Nature of the assay: co-IP; LS180 cells treated for 90 min with TCDD (10 nM), FICZ (10 nM) or butyrate (10 mM) with FICZ (10 nM); lysate; Pierce Co-Immunoprecipitation Kit with covalently bound AhR antibody; eluate blotted with ARNT 1 antibody.
The target is the same in assay [2]. Nature of the assay: condition: only cells treated with butyrate (10 mM) alone, without an AhR agonist; co-IP; LS180 cells treated for 90 min with butyrate (10 mM) alone; lysate; Pierce Co-Immunoprecipitation Kit with covalently bound AhR antibody; eluate blotted with ARNT 1 antibody.

These are yes or no findings as the source states them, for the method shown. Binding seen in cells or lysates may run through a third protein. Some binding calls cover weakened binding; strength is not graded here.

As to “AhR nuclear translocator (from UniProt P27540 1-789)”, the binding result in assay [1] is “binds”; in assay [2] it was “no binding”.
